What all share (assay): log2 fold change, soluble protein after heating vs DMSO (PISA); higher = thermal stabilisation; K562 lysate, 10 uM; active = over 0.2 and 3.5 SD of the protein, either way, in both replicates (recomputed)
Compound in one test: CCCS(=O)(=O)Nc1ccc(F)c(C(=O)c2c[nH]c3ncc(-c4ccc(Cl)cc4)cc23)c1F [vemurafenib]
An outline of the steps:
(§1)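 Log-two fold change in thermal stability relative to solvent controls is reported from duplicates. For each sample, crude K562 extract from dounce-homogenised pellets in PBS pH 7.4 with 1 mM MgCl2, at 1 mg/mL protein, was treated with 10 μM compound for 30 min. Aliquots heated for 3 min across 48°C-58°C were pooled, brought to 0.5% NP-40 at 4°C and cleared at 21,000xg for 90 min. The supernatant was quantified by TMTpro 16plex LC-MS/MS with channel sums equalised.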

Chains of the proteins cited; added tags and fusions are not shown. Lines headed by an entry give the natural chain unless they say otherwise; changes in a name come on top.
UniProt O95169, whole entry, looked up: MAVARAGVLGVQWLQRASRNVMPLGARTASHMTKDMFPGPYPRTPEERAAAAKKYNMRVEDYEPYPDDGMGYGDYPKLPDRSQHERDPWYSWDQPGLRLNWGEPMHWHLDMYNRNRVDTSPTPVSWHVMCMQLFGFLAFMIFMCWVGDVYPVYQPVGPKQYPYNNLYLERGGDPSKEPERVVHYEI
UniProt Q9BZQ8: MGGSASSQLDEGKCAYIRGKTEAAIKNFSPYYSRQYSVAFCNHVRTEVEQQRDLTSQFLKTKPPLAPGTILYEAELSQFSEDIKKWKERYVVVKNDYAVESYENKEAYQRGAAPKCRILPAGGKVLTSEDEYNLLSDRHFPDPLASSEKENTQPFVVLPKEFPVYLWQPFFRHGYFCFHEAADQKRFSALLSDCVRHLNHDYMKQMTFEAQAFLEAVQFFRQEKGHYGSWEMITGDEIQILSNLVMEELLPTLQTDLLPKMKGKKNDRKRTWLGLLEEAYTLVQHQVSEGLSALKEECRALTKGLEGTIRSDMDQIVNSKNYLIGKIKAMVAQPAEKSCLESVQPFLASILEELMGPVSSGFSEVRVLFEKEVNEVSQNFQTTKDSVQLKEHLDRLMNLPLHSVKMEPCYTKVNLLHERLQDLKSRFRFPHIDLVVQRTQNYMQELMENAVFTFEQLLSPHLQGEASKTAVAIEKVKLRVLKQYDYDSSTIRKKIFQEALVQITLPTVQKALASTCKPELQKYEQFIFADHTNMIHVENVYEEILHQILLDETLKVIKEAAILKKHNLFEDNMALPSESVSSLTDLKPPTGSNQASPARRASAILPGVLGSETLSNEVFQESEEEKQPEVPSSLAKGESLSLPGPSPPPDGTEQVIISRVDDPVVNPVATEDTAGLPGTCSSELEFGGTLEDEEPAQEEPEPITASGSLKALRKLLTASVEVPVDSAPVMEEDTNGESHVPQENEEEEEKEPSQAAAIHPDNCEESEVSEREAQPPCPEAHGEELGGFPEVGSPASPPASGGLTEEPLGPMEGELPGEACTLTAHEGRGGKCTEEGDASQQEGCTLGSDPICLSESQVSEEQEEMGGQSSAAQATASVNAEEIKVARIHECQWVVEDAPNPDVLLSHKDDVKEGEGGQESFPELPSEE
UniProt Q9NX02: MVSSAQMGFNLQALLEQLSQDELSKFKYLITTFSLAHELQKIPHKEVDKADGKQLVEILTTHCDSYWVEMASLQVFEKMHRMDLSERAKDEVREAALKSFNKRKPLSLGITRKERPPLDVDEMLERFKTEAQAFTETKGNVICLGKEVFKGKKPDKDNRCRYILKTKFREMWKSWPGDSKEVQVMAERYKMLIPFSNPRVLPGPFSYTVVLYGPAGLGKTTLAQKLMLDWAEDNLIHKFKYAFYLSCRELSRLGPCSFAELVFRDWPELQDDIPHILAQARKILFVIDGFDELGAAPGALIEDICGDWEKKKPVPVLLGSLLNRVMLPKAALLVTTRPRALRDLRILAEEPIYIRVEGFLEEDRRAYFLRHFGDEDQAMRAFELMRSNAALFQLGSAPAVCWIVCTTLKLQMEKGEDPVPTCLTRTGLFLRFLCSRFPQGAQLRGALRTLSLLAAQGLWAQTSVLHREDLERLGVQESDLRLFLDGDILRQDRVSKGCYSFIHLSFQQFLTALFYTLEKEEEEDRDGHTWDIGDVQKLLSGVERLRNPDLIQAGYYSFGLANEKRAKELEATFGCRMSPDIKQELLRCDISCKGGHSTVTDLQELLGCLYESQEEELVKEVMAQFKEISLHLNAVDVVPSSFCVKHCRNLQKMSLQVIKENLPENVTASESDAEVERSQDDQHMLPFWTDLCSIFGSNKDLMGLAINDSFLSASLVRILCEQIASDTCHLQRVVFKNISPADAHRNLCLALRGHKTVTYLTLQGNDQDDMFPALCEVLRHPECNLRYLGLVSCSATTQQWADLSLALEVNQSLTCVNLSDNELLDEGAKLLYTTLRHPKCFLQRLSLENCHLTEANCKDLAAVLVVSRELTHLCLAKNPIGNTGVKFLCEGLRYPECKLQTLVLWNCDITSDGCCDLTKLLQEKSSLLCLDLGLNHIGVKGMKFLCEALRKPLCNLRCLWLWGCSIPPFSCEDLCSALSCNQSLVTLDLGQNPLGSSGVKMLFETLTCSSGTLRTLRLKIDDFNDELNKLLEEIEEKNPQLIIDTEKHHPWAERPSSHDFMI
UniProt Q12986: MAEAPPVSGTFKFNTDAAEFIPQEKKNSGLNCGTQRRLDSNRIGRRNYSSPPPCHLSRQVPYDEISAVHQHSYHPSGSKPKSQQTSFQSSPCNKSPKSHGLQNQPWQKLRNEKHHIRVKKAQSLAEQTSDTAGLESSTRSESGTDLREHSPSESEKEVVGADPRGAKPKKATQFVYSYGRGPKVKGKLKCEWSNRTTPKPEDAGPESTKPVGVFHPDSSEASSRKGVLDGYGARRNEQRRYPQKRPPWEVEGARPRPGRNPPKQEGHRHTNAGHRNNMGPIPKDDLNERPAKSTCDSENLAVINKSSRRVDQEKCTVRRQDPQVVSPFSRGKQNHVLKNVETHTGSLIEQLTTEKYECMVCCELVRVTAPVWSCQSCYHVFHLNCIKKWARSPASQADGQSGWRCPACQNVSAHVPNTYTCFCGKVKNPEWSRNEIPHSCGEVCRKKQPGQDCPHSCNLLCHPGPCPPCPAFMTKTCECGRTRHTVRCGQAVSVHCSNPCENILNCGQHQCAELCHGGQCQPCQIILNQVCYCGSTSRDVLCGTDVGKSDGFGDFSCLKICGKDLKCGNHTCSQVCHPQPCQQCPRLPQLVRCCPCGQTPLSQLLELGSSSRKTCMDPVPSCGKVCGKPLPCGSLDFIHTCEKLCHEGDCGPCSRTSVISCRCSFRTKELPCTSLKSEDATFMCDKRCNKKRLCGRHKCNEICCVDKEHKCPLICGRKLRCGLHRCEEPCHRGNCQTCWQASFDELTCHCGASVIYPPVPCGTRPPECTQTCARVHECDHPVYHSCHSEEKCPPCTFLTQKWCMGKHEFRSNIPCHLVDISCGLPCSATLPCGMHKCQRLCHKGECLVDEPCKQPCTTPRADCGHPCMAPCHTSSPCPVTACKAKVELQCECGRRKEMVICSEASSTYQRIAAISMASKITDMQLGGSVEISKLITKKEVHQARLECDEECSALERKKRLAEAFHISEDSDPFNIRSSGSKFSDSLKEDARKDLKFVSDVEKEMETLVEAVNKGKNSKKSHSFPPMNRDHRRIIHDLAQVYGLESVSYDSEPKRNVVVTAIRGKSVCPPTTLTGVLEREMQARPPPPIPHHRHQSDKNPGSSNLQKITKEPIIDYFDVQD
UniProt Q8N183: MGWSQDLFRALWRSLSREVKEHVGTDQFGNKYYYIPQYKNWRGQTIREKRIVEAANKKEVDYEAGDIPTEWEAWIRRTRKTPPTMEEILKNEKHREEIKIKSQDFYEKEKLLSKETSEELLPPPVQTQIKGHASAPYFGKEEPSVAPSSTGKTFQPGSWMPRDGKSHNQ
UniProt Q9NVZ3: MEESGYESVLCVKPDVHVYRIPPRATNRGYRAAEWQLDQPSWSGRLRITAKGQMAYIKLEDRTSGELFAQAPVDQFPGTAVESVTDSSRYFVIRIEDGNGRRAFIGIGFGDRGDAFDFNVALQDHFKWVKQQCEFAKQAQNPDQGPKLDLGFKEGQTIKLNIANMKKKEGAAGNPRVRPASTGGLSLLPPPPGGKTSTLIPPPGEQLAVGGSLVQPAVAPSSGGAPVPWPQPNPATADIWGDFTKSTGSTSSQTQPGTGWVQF
UniProt P56181: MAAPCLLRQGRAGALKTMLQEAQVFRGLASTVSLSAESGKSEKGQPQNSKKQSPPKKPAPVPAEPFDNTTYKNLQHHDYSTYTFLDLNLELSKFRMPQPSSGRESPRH
UniProt Q9BPW8: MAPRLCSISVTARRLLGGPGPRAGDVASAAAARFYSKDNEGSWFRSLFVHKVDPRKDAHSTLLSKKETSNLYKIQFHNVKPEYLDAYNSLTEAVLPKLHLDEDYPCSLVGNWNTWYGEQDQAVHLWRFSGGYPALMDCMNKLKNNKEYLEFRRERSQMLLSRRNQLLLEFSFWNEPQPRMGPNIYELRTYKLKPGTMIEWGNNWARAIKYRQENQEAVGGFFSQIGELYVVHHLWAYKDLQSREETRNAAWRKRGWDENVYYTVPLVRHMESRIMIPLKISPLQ
UniProt Q8TDX7: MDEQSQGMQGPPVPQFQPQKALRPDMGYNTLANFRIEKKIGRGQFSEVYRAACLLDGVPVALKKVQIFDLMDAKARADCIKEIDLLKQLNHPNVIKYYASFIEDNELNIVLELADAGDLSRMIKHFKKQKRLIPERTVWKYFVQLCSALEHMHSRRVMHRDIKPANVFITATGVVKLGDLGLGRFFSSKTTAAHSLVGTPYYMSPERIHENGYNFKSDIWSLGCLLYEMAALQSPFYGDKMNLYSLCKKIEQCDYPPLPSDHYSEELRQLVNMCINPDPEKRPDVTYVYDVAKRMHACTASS
UniProt Q9GZM8: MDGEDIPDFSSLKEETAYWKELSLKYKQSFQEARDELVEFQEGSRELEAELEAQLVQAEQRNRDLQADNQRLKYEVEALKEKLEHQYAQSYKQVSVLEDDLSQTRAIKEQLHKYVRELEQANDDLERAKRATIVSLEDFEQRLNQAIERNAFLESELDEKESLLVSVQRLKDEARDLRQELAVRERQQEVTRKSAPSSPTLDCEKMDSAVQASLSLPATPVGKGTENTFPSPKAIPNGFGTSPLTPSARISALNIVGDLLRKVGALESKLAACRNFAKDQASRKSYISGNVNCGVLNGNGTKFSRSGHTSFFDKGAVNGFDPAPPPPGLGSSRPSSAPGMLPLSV
UniProt P51970, whole entry, looked up: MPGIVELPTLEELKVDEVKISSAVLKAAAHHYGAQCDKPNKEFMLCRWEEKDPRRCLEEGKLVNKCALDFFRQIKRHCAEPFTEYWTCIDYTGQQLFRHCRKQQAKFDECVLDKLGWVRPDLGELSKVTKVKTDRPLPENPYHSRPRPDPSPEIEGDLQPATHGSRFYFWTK
UniProt Q15653: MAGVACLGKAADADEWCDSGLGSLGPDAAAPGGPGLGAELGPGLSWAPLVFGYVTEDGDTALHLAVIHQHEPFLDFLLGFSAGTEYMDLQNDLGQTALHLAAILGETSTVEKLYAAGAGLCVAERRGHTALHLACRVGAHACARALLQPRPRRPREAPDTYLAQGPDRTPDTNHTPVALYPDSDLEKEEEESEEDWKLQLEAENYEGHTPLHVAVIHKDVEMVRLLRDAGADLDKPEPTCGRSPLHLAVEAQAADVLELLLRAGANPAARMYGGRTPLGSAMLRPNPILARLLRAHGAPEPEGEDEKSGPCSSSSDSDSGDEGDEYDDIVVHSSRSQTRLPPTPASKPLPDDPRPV
UniProt O75251, whole entry, looked up: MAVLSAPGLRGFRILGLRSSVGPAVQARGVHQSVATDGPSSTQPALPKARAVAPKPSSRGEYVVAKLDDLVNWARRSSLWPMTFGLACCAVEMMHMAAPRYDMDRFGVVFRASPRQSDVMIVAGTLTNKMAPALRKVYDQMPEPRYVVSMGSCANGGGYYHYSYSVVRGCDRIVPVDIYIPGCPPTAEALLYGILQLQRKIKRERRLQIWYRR
UniProt O75380, whole entry, looked up: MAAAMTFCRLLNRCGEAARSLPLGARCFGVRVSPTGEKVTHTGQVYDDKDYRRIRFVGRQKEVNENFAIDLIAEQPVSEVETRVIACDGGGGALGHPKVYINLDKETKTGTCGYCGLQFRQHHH

Compound in test [1]: CCCS(=O)(=O)Nc1ccc(F)c(C(=O)c2c[nH]c3ncc(Cl)cc23)c1F
Put shortly:
as §1

Compound in the next test: CCN(CCCOc1ccc2c(Nc3cc(CC(=O)Nc4cccc(F)c4)[nH]n3)ncnc2c1)CCOP(=O)(O)O [barasertib]
An outline of the steps: as §1

Compound in test [2]: CC[C@@H]1C(=O)N(C)c2cnc(Nc3ccc(C(=O)NC4CCN(C)CC4)cc3OC)nc2N1C1CCCC1
An outline of the steps:
as §1

Compound in another test: CC[C@@H]1C(=O)N(C)c2cnc(Nc3ccc(C(=O)N[C@H]4CC[C@H](N5CCN(CC6CC6)CC5)CC4)cc3OC)nc2N1C(C)C [volasertib]
An outline of the steps:
as §1

Compound in test [3]: CCn1c(C(=O)N(C2CC2)C2CC2)cc2c3c(ncn3C)c(Nc3cc(C)n(C)n3)nc21
An outline of the steps:
as §1

Compound in test [4]: CCn1cc(-c2ccnc3[nH]c(-c4cccc(CN(C)C)c4)cc23)c(-c2ccc(NC(=O)N(C)C)cc2)n1
An outline of the steps: as §1

Compound in test [5]: CN1CCC(CNc2ccc3ncc(-c4cccc(OC(F)(F)F)c4)n3n2)CC1
An outline of the steps: as §1

Compound in another test: CN1CCN(CCOc2cc(OC3CCOCC3)c3c(Nc4c(Cl)ccc5c4OCO5)ncnc3c2)CC1 [saracatinib]
An outline of the steps:
as §1

Compound in a further test: CN1CCN(c2nc(C3=C(c4c[nH]c5ccccc45)C(=O)NC3=O)c3ccccc3n2)CC1 [sotrastaurin]
Put shortly:
as §1

Some of the results follow.

Consider 14 targets from the supplement of paper PMC10849652.

Consider NDUFB8 (UniProt O95169), for which the log2 fold change with vemurafenib is inactive: -0.04; in [1], inactive: -0.02; with barasertib, inactive: 0.018; in [2], inactive: -0.036; with volasertib, inactive: 0.054; in test [3], inactive: 0. Further, the log2 fold change in [4] is inactive: -0.008; in test [5], inactive: -0.049; with saracatinib it was inactive: 0.045; with sotrastaurin, inactive: -0.046.

On to NIBAN1 (UniProt Q9BZQ8), for which the log2 fold change is inactive: -0.008 with vemurafenib; inactive: 0.014 in test [1]; inactive: 0.023 with barasertib; inactive: -0.046 in test [2]; inactive: -0.054 in the test with volasertib; inactive: -0.004 in test [3]. In addition, the log2 fold change in [4] is inactive: 0.009; in test [5], inactive: -0.035; with saracatinib it was inactive: -0.02; with sotrastaurin, inactive: 0.005.

Take NLRP2 (UniProt Q9NX02): the log2 fold change in the test with vemurafenib is inactive: -0.011; in [1], inactive: -0.003; with barasertib, inactive: -0.04; in test [2] it was inactive: -0.048; with volasertib, inactive: -0.067; in test [3], inactive: 0.041. The log2 fold change in test [4] is inactive: 0.031; in test [5], inactive: -0.05; with saracatinib, inactive: -0.012; with sotrastaurin it was inactive: -0.017.

On to NFX1 (UniProt Q12986), for which the log2 fold change in the test with vemurafenib was inactive: 0.019; in [1], inactive: 0.05; with barasertib, inactive: 0.102; in [2], inactive: 0.225; in the test with volasertib it was inactive: 0.014; in test [3], inactive: -0.035. Further, the log2 fold change in test [4] was inactive: -0.085; in test [5], inactive: 0.016; with saracatinib, inactive: -0.051; with sotrastaurin it was inactive: 0.023.

For NDUFAF2 (UniProt Q8N183), the log2 fold change was inactive: -0.023 in the test with vemurafenib; inactive: -0.042 in [1]; inactive: 0.009 in the test with barasertib; inactive: 0.056 in test [2]; inactive: 0.022 with volasertib; inactive: 0.022 in test [3]. The log2 fold change is inactive: -0.174 in test [4], inactive: 0.014 in test [5], inactive: 0.025 in the test with saracatinib and inactive: -0.008 in the test with sotrastaurin.

For NECAP2 (UniProt Q9NVZ3), the log2 fold change is inactive: -0.038 in the test with vemurafenib; inactive: -0.005 in test [1]; inactive: -0.011 with barasertib; inactive: 0.073 in test [2]; inactive: 0.04 with volasertib; inactive: -0.022 in test [3]. For the same target, the log2 fold change was inactive: 0.044 in test [4], inactive: -0.002 in [5], inactive: -0.015 in the test with saracatinib and inactive: -0.042 in the test with sotrastaurin.

Take NDUFV3 isoform 2 (UniProt P56181): the log2 fold change was inactive: -0.005 in the test with vemurafenib; inactive: 0.004 in [1]; inactive: -0.036 with barasertib; inactive: 0.03 in test [2]; inactive: 0.01 with volasertib; inactive: -0.045 in test [3]. For the same target, the log2 fold change in test [4] was inactive: -0.088; in test [5], inactive: 0.021; with saracatinib, inactive: -0.006; in the test with sotrastaurin it was inactive: -0.027.

On to NIPSNAP1 (UniProt Q9BPW8), for which the log2 fold change in the test with vemurafenib is inactive: -0.056; in test [1], inactive: 0.07; with barasertib, inactive: 0.038; in test [2], inactive: -0.067; with volasertib, inactive: -0.053; in [3], inactive: -0.056. Further, the log2 fold change in test [4] is inactive: -0.036; in test [5], inactive: -0.154; in the test with saracatinib it was inactive: 0.011; with sotrastaurin, inactive: -0.043.

Take NEK7 (UniProt Q8TDX7): the log2 fold change in the test with vemurafenib is inactive: 0.086; in test [1] it was inactive: 0.024; with barasertib, inactive: 0.002; in test [2], inactive: -0.006; with volasertib, inactive: -0.091; in test [3], inactive: -0.025. The log2 fold change in test [4] was inactive: -0.13; in [5] it was inactive: 0.041; with saracatinib, inactive: 0.013; with sotrastaurin it was inactive: 0.04.

Regarding NDEL1 isoform 2 (UniProt Q9GZM8), the log2 fold change with vemurafenib is inactive: -0.088; in test [1], inactive: 0.062; with barasertib, inactive: -0.029; in test [2], inactive: 0.112; in the test with volasertib, inactive: 0.019; in [3], inactive: -0.011. Also, the log2 fold change in test [4] was inactive: 0.145; in [5], inactive: -0.047; with saracatinib it was inactive: 0.02; with sotrastaurin it was inactive: 0.061.

Consider NDUFA8 (UniProt P51970), for which the log2 fold change with vemurafenib is inactive: 0.035; in test [1], inactive: -0.022; in the test with barasertib, inactive: -0.055; in test [2], inactive: -0.011; with volasertib, inactive: 0.012; in test [3], inactive: 0.047. The log2 fold change is inactive: 0.175 in [4], inactive: -0.083 in test [5], inactive: -0.024 with saracatinib and inactive: 0.009 in the test with sotrastaurin.

NFKBIB (UniProt Q15653): the log2 fold change with vemurafenib is inactive: -0.058; in [1], inactive: 0.041; with barasertib, inactive: -0.059; in [2], inactive: 0.099; in the test with volasertib, inactive: 0.068; in test [3], inactive: -0.054. The log2 fold change was active: -0.535 in test [4], inactive: 0.096 in test [5], inactive: -0.013 in the test with saracatinib and inactive: -0.002 with sotrastaurin.

Take NDUFS7 (UniProt O75251): the log2 fold change with vemurafenib is inactive: -0.035; in [1], inactive: -0.005; with barasertib it was inactive: 0.054; in test [2], inactive: -0.039; with volasertib, inactive: 0.009; in test [3], inactive: 0.061. Besides, the log2 fold change is inactive: -0.043 in test [4], inactive: -0.069 in [5], inactive: -0.017 with saracatinib and inactive: 0.043 in the test with sotrastaurin.

For the target NDUFS6 (UniProt O75380), the log2 fold change in the test with vemurafenib was inactive: -0.035; in test [1] it was inactive: 0.006; with barasertib, inactive: 0.043; in [2], inactive: -0.037; in the test with volasertib, inactive: 0.014; in [3] it was inactive: 0.02. In addition, the log2 fold change in test [4] was inactive: 0.008; in test [5], inactive: 0.002; with saracatinib it was inactive: 0.003; with sotrastaurin it was inactive: -0.007.
